In the supplement of paper PMC10849652:
This is one part of the list.

By UniProt entry, the sequences of proteins in these tests, tags left out. Where a name states a change or a piece, a line headed by the entry shows the natural chain unless it says otherwise.
UniProt Q5TAX3: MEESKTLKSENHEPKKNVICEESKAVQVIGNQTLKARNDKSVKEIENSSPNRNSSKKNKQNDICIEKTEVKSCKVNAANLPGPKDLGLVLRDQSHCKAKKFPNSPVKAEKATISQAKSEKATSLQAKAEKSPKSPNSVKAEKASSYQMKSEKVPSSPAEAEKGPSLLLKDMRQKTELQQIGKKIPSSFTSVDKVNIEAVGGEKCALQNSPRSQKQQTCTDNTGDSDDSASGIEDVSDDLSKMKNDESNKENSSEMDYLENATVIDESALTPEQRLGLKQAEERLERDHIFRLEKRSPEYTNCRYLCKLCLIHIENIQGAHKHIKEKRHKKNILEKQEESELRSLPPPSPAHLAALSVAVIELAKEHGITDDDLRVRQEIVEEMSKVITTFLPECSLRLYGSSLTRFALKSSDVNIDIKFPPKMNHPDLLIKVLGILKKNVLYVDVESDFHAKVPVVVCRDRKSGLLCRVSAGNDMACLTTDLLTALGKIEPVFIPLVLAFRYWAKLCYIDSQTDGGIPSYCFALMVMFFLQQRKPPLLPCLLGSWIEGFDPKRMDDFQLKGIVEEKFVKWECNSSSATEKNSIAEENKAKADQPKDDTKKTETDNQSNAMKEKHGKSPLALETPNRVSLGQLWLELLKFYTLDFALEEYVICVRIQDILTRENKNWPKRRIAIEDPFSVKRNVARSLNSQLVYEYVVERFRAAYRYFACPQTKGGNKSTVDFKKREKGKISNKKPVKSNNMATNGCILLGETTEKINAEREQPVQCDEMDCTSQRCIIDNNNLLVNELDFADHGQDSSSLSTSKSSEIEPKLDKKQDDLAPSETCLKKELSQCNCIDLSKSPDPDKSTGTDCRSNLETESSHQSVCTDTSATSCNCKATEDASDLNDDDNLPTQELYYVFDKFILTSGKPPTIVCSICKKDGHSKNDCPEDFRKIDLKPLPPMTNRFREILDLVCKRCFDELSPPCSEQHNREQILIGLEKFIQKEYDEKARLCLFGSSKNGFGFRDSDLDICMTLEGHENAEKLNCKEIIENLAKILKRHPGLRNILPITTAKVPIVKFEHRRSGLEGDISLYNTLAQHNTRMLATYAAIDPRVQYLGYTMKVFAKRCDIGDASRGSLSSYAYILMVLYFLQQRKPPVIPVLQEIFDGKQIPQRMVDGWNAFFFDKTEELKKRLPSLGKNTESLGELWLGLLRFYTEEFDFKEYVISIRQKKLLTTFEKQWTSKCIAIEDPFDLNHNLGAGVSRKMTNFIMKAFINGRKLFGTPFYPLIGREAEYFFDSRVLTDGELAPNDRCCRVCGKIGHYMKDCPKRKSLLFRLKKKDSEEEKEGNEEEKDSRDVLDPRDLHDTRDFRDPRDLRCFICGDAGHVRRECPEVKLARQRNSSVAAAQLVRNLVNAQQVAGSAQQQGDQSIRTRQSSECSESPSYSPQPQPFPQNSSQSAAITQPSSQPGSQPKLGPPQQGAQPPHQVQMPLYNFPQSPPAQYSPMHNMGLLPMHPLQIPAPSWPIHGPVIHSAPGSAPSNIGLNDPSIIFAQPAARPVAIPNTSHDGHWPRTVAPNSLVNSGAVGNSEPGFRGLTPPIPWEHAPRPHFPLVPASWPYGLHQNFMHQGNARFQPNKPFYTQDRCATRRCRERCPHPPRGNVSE
UniProt Q13454: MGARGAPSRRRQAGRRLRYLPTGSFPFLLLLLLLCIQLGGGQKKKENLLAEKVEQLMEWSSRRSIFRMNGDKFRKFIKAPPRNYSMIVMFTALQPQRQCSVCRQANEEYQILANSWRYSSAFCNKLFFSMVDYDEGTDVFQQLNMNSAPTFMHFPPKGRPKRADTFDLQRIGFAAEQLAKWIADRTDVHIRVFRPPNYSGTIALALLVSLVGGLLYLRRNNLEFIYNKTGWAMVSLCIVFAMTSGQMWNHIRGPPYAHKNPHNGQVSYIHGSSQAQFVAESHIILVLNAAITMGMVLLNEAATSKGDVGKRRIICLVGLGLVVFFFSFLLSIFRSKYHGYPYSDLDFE
UniProt Q16881, whole entry, looked up: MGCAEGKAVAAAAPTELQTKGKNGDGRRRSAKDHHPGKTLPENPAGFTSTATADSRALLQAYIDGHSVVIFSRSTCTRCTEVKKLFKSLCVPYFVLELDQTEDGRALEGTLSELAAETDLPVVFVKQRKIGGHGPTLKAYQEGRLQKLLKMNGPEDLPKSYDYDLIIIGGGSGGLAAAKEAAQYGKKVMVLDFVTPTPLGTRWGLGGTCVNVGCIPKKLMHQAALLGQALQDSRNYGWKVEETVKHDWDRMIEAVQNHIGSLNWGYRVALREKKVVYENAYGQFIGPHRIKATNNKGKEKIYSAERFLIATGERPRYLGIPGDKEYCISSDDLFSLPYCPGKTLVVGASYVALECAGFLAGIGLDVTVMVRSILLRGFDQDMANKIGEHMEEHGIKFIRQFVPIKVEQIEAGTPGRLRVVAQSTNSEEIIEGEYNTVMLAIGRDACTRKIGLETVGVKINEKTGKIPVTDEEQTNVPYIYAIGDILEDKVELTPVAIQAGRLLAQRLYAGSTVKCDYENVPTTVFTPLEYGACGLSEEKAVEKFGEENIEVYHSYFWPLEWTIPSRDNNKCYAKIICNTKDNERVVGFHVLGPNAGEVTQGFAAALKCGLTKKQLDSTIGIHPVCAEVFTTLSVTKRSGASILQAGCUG
UniProt Q96CW5, whole entry, looked up: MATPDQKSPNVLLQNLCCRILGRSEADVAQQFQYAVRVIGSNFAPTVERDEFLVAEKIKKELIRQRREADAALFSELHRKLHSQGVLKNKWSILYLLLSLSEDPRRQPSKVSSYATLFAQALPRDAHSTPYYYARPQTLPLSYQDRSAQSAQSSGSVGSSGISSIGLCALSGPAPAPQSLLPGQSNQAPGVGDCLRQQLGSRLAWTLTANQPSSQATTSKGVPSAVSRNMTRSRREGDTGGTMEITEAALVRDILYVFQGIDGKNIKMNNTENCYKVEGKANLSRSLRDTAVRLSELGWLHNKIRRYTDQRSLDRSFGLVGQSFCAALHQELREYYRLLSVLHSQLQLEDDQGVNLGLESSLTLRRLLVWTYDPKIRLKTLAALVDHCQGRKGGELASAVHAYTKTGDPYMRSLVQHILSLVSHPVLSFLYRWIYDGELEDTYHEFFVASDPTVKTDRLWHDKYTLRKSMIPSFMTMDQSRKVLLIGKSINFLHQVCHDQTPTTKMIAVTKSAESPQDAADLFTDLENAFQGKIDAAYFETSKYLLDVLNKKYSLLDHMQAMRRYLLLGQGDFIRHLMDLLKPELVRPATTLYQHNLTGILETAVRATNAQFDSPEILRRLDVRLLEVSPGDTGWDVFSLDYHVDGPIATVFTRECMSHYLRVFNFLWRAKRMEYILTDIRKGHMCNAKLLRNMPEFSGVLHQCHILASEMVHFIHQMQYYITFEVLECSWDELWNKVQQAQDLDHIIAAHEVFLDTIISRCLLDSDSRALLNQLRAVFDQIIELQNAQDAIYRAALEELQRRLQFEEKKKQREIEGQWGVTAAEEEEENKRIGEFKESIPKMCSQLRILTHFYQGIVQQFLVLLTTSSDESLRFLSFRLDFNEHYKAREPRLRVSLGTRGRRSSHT
UniProt P17480: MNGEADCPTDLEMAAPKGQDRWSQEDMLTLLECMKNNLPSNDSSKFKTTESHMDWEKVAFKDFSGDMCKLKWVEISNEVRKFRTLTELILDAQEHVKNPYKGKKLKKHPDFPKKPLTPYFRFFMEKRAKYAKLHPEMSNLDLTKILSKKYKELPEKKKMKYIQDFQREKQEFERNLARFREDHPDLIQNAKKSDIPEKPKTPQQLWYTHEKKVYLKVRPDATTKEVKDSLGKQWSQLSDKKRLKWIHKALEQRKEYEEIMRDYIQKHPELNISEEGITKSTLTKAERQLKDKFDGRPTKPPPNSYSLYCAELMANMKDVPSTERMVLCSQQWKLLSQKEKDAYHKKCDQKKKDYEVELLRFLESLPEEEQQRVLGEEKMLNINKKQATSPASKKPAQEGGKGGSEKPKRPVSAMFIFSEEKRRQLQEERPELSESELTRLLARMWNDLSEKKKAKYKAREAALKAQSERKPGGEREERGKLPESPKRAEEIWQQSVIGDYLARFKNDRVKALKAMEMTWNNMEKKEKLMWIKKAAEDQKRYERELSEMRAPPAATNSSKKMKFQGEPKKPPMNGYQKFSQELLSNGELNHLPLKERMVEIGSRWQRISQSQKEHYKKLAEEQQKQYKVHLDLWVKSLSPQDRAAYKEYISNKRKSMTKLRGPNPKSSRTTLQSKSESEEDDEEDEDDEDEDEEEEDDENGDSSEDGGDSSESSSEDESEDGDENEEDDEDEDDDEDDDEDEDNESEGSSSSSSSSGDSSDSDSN
UniProt Q8NBS9: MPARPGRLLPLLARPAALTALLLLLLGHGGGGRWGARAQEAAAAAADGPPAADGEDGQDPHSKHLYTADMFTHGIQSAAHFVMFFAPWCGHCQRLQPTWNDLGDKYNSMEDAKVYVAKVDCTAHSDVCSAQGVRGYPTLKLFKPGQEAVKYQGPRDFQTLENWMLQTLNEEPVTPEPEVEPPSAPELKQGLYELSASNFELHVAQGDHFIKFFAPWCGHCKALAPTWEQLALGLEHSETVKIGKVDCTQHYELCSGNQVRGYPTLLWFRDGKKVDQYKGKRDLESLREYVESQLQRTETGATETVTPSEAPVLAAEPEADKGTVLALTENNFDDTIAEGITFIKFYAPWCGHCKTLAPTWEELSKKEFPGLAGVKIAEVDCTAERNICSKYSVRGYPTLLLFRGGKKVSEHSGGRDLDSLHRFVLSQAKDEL
UniProt P0DPH7, whole entry, looked up: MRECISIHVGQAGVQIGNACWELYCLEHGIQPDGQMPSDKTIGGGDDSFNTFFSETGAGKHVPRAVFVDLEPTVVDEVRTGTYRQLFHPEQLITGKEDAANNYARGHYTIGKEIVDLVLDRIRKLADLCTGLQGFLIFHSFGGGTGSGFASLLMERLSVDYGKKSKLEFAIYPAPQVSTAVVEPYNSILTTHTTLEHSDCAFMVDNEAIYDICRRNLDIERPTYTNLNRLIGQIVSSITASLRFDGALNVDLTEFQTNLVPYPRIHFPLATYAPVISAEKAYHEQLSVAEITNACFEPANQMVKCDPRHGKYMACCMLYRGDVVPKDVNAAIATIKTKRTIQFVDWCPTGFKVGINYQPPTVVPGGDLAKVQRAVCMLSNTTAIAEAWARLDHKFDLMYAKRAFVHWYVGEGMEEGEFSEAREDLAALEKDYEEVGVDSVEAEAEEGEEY
UniProt Q9H832: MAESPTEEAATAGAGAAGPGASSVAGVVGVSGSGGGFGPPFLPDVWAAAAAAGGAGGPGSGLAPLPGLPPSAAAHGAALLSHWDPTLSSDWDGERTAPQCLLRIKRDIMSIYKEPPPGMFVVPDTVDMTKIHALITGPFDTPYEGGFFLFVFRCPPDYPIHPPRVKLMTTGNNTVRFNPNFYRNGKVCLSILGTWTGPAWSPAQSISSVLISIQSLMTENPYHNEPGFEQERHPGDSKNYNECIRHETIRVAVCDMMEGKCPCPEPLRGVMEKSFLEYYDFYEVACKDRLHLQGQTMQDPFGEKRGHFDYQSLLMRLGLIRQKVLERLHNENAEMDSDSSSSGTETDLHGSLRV
UniProt P63279, whole entry, looked up: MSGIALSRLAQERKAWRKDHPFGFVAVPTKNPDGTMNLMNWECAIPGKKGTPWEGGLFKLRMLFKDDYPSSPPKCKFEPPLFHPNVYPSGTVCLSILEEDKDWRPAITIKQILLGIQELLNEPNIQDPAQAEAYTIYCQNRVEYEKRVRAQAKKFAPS
UniProt P40222: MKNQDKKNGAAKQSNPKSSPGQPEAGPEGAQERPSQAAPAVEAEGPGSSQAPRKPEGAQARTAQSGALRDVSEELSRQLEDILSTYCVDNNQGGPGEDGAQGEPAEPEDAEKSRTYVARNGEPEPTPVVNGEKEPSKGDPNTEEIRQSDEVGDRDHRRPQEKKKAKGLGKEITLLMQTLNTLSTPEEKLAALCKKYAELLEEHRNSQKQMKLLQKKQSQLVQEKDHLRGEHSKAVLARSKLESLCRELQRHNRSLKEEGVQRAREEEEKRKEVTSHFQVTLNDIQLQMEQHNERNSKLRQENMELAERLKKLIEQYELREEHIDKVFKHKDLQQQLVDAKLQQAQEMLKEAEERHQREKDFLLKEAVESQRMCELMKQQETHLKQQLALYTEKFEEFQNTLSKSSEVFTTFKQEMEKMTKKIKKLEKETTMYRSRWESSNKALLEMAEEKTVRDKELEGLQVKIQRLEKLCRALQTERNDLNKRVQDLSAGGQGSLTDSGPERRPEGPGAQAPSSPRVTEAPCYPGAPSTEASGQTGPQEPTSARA
UniProt P68036, whole entry, looked up: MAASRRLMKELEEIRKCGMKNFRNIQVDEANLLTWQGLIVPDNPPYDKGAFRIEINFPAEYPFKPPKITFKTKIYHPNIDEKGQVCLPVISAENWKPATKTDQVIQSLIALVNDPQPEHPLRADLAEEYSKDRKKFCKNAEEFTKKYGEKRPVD
UniProt P11441: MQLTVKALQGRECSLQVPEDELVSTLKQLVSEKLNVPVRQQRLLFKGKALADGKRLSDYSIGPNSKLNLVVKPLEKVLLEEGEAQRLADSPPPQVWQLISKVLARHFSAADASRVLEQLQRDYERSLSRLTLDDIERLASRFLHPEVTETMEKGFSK

Key:
Assay in all cases: log2 fold change, soluble protein after heating vs DMSO (PISA); higher = thermal stabilisation; K562 lysate, 10 uM; active = over 0.2 and 3.5 SD of the protein, either way, in both replicates (recomputed)
nilotinib = compound: Cc1cn(-c2cc(NC(=O)c3ccc(C)c(Nc4nccc(-c5cccnc5)n4)c3)cc(C(F)(F)F)c2)cn1 [nilotinib]
In short: (§1)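 Values give the log-two fold change in thermal stability against solvent controls, from duplicates. Crude K562 extract at 1 mg/mL protein, made by dounce homogenisation in PBS pH 7.4 with 1 mM MgCl2, was treated with 10 μM compound for 30 min. After 3 min heating across 48°C-58°C, aliquots were pooled, adjusted to 0.5% NP-40 at 4°C and centrifuged at 21,000xg for 90 min. The supernatant was measured by TMTpro 16plex LC-MS/MS with channel sums equalised.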

[1] = compound: Cc1nc(Nc2n[nH]c3c2CN(C(=O)N[C@H](CN(C)C)c2ccccc2)C3(C)C)c2sccc2n1
In short: as §1

dasatinib = compound: Cc1nc(Nc2ncc(C(=O)Nc3c(C)cccc3Cl)s2)cc(N2CCN(CCO)CC2)n1 [dasatinib]
In short: as §1

[2] = compound: Cc1ncc(-c2ccnc(Nc3ccc(S(C)(=O)=O)cc3)n2)n1C(C)C
In short: as §1

[3] = compound: Cn1cc(-c2ccc3c(c2)CCN3C(=O)Cc2cccc(C(F)(F)F)c2)c2c(N)ncnc21
In short: as §1

quisinostat = compound: Cn1cc(CNCC2CCN(c3ncc(C(=O)NO)cn3)CC2)c2ccccc21 [quisinostat]
In short: as §1

tipifarnib = compound: Cn1cncc1[C@@](N)(c1ccc(Cl)cc1)c1ccc2c(c1)c(-c1cccc(Cl)c1)cc(=O)n2C [tipifarnib]
In short: as §1

[4] = compound: NC(=O)Nc1cc(-c2cccc(F)c2)sc1C(=O)N[C@H]1CCCNC1
In short: as §1

[5] = compound: NC(=O)c1cnc(N[C@@H]2CCCC[C@@H]2N)nc1Nc1cccc(-n2nccn2)c1
In short: as §1

[6] = compound: NC1(c2ccc(-c3nc4ccn5c(=O)[nH]nc5c4cc3-c3ccccc3)cc2)CCC1
In short: as §1

Measured: log2 fold change

TUT4 (UniProt Q5TAX3)
inactive: nilotinib -0.06 | [1] 0.02 | dasatinib -0.097 | [2] 0.001 | [3] -0.001 | quisinostat -0.054 | tipifarnib -0.045 | [4] 0.055 | [5] 0.048 | [6] -0.002

TUSC3 isoform 2 (UniProt Q13454)
inactive: nilotinib -0.001 | [1] 0.065 | dasatinib 0.015 | [2] -0.036 | [3] -0.046 | quisinostat -0.049 | tipifarnib -0.06 | [4] 0.026 | [5] -0.006 | [6] -0.011

UBA2 (UniProt Q9UBT2)
inactive: nilotinib 0.003 | [1] -0.026 | dasatinib -0.009 | [2] -0.006 | [3] 0.013 | quisinostat 0.069 | tipifarnib 0.013 | [4] 0.004 | [5] -0.014 | [6] 0.009

UBE2T (UniProt Q9NPD8)
inactive: nilotinib 0.003 | [1] -0.006 | dasatinib -0.027 | [2] 0.01 | [3] -0.016 | quisinostat -0.025 | tipifarnib 0.015 | [4] -0.015 | [5] 0.027 | [6] 0.033

TXNRD1 (UniProt Q16881)
inactive: nilotinib 0.002 | [1] -0.01 | dasatinib 0.016 | [2] -0.012 | [3] -0.021 | quisinostat -0.031 | tipifarnib 0.009 | [4] -0.002 | [5] -0.003 | [6] 0.013

TUT1 (UniProt Q9H6E5)
inactive: nilotinib -0.012 | [1] -0.038 | dasatinib -0.027 | [2] -0.006 | [3] -0.001 | quisinostat -0.045 | tipifarnib -0.045 | [4] 0.044 | [5] 0.004 | [6] -0.018

TXNL1 (UniProt O43396)
inactive: nilotinib 0.009 | [1] -0.004 | dasatinib 0.002 | [2] -0.025 | [3] 0 | quisinostat -0.009 | tipifarnib 0.01 | [4] -0.004 | [5] 0 | [6] 0.003

UBR1 (UniProt Q8IWV7)
inactive: nilotinib -0.022 | [1] 0.01 | dasatinib -0.012 | [2] 0.013 | [3] 0.046 | quisinostat -0.093 | tipifarnib 0.007 | [4] 0.021 | [5] -0.006 | [6] -0.021

TUBGCP3 (UniProt Q96CW5)
inactive: nilotinib -0.031 | [1] 0.029 | dasatinib -0.038 | [2] 0.043 | [3] 0.038 | quisinostat -0.083 | tipifarnib -0.023 | [4] 0.009 | [5] 0.002 | [6] 0.012

TUBGCP6 (UniProt Q96RT7)
inactive: nilotinib 0.065 | [1] 0.036 | dasatinib -0.131 | [2] 0.006 | [3] 0.064 | quisinostat 0.03 | tipifarnib -0.099 | [4] 0.093 | [5] 0.046 | [6] 0.026

Pulled one by one from above, 2 records:
TUBGCP6 (UniProt Q96RT7)
inactive: nilotinib 0.065 | [1] 0.036 | dasatinib -0.131 | [2] 0.006 | [3] 0.064 | quisinostat 0.03 | tipifarnib -0.099 | [4] 0.093 | [5] 0.046 | [6] 0.026

TXNL1 (UniProt O43396)
inactive: nilotinib 0.009 | [1] -0.004 | dasatinib 0.002 | [2] -0.025 | [3] 0 | quisinostat -0.009 | tipifarnib 0.01 | [4] -0.004 | [5] 0 | [6] 0.003

Following part.

UBTF (UniProt P17480)
inactive: nilotinib 0.001 | [1] 0.031 | dasatinib -0.021 | [2] -0.039 | [3] 0.004 | quisinostat 0 | tipifarnib 0.015 | [4] 0.044 | [5] -0.01 | [6] -0.042

TXNDC5 (UniProt Q8NBS9)
inactive: nilotinib 0.025 | [1] -0.01 | dasatinib 0.021 | [2] -0.004 | [3] -0.005 | quisinostat 0.01 | tipifarnib 0.008 | [4] -0.022 | [5] -0.028 | [6] 0.015

UBE4B isoform 4 (UniProt O95155)
inactive: nilotinib 0.008 | [1] 0 | dasatinib -0.006 | [2] -0.003 | [3] 0.02 | quisinostat -0.015 | tipifarnib -0.016 | [4] 0.003 | [5] 0.004 | [6] 0

TUBB6 (UniProt Q9BUF5)
inactive: nilotinib -0.002 | [1] -0.023 | dasatinib -0.031 | [2] 0.006 | [3] -0.006 | quisinostat -0.028 | tipifarnib 0.021 | [4] 0.022 | [5] -0.001 | [6] 0.004

TUBA4A (UniProt P68366)
inactive: nilotinib 0.036 | [1] -0.024 | dasatinib -0.09 | [2] -0.009 | [3] 0.02 | quisinostat -0.024 | tipifarnib -0.012 | [4] 0.034 | [5] 0.022 | [6] -0.003

TUBA1B (UniProt P68363)
inactive: nilotinib -0.043 | [1] -0.009 | dasatinib -0.051 | [2] -0.036 | [3] 0.01 | quisinostat -0.021 | tipifarnib 0.002 | [4] 0.041 | [5] 0.002 | [6] -0.013

UBE2Q1 (UniProt Q7Z7E8)
inactive: nilotinib -0.017 | [1] -0.003 | dasatinib 0.014 | [2] 0.011 | [3] -0.019 | quisinostat 0.01 | tipifarnib 0.066 | [4] -0.052 | [5] -0.022 | [6] 0.001

UBR5 (UniProt O95071)
inactive: nilotinib 0.006 | [1] 0.027 | dasatinib -0.028 | [2] -0.019 | [3] 0.019 | quisinostat -0.059 | tipifarnib -0.02 | [4] 0.005 | [5] 0.013 | [6] -0.009

UBXN6 (UniProt Q9BZV1)
inactive: nilotinib -0.033 | [1] 0.042 | dasatinib 0.017 | [2] -0.065 | [3] 0.046 | quisinostat 0.028 | tipifarnib 0.016 | [4] 0.013 | [5] 0.068 | [6] -0.013

TUBA3C (UniProt P0DPH7)
inactive: nilotinib -0.009 | [1] -0.029 | dasatinib -0.018 | [2] -0.001 | [3] -0.05 | quisinostat -0.098 | tipifarnib -0.025 | [4] 0.05 | [5] 0.022 | [6] 0.005

UBE2Z (UniProt Q9H832)
inactive: nilotinib -0.016 | [1] 0.026 | dasatinib 0.026 | [2] 0.002 | [3] -0.006 | quisinostat 0.009 | tipifarnib 0.012 | [4] 0.016 | [5] 0.04 | [6] 0.051

TUBGCP2 isoform 4 (UniProt Q9BSJ2)
inactive: nilotinib -0.016 | [1] 0.012 | dasatinib -0.058 | [2] 0.012 | [3] 0.064 | quisinostat -0.091 | tipifarnib -0.001 | [4] 0.037 | [5] 0 | [6] -0.016

UBE2I (UniProt P63279)
inactive: nilotinib 0.006 | [1] 0.011 | dasatinib -0.003 | [2] -0.009 | [3] 0.004 | quisinostat -0.008 | tipifarnib 0.031 | [4] 0.006 | [5] -0.028 | [6] -0.024

TXLNA (UniProt P40222)
inactive: nilotinib -0.018 | [1] 0.011 | dasatinib 0.011 | [2] 0.036 | [3] 0.014 | quisinostat 0.042 | tipifarnib 0.031 | [4] -0.027 | [5] 0.002 | [6] 0.013

UBE2L3 isoform 3 (UniProt P68036)
inactive: nilotinib -0.012 | [1] -0.007 | dasatinib 0.027 | [2] 0.014 | [3] -0.041 | quisinostat 0.024 | tipifarnib 0.043 | [4] -0.004 | [5] 0 | [6] 0.047

UBP1 (UniProt Q9NZI7)
inactive: nilotinib -0.019 | [1] -0.039 | dasatinib 0.008 | [2] 0.05 | [3] 0.002 | quisinostat -0.125 | tipifarnib -0.084 | [4] 0.01 | [5] 0.008 | [6] -0.058

TUBB2A (UniProt Q13885)
inactive: nilotinib -0.005 | [1] -0.002 | dasatinib -0.049 | [2] -0.02 | [3] -0.001 | quisinostat -0.035 | tipifarnib 0.009 | [4] 0.043 | [5] 0.003 | [6] 0.007

TXNDC15 (UniProt Q96J42)
inactive: nilotinib -0.033 | [1] -0.118 | dasatinib 0.033 | [2] 0.021 | [3] -0.002 | quisinostat -0.046 | tipifarnib -0.004 | [4] 0.077 | [5] -0.053 | [6] -0.028

TXNDC11 (UniProt Q6PKC3)
inactive: nilotinib -0.006 | [1] 0.07 | dasatinib -0.038 | [2] 0.063 | [3] 0.004 | quisinostat -0.064 | tipifarnib 0.134 | [4] 0.052 | [5] -0.029 | [6] -0.024

UBL4A (UniProt P11441)
inactive: nilotinib -0.005 | [1] -0.013 | dasatinib 0.052 | [2] -0.037 | [3] 0.036 | quisinostat 0.157 | tipifarnib -0.024 | [4] 0.02 | [5] 0.007 | [6] 0.016
